Several values for one entry are separate records, joined by “and”; a condition that tells them apart may be missing. Identical values can stand only once. Out of some 400,000 compounds screened, about 13,000 (3.2%) were called active. This list was built around the results that the source calls inconclusive (neither active nor inactive); the mix of calls is not that of the screen. Calls follow the shape of the dose curve; as a rule, active = well fitted cell-killing curve with a large enough effect; inconclusive = small, poorly fitted or top-dose-only effect, or effect the other way; inactive = flat fitted curve, though single readings scatter. Potencies of inconclusive entries are doubtful fits and often do not repeat.
Assay: qHTS assay for MDR1-selective chemotherapeutics: Primary screen using the drug-selected MDR subline cells KB-V1; also: nearly all actives have a fitted effect of over 60% in size
Conditions: KB-V1 MDR cells viability, CellTiter-Glo, 72 h; activity change, negative = cytotoxicity: at 46.1 µM (top of the series)
Summary of the method: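 Following 72 h at 37 degrees C with compound, KB-V1 cell viability was read by CellTiter-Glo luminescence, medium being phenol-red-free DMEM plus 10% FBS; concentration-response parameters came from normalized, curve-fitted qHTS data.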
% is scaled to controls: 0 for no effect and ±100 for the full control effect; potency is read from the fitted curve at half-maximal effect.

| Compound | Potency | activity change, negative = cytotoxicity |
| --- | --- | --- |
| COc1ccc(CNC(=O)CN2C(=O)c3ccccc3C2=O)cc1 | inconclusive: 29.1 µM [rising, single point] | – |
| c1ccc(CN2CCN(c3nc(N4CCOCC4)c4ccccc4n3)CC2)cc1 | inconclusive: 11.6 µM [cytotoxic, partial curve] | – |
| CC(C)(C)c1csc(NC(=O)Cc2cccs2)n1 | inconclusive: 29.1 µM [cytotoxic, single point] | – |
| Cc1cc(=O)c2ccc(NC(=O)c3ccccc3)cc2[nH]1 | inconclusive: 20.6 µM [rising, partial curve, poor fit] | – |
| Cn1c(SCC(=O)N2CCN(c3ccccc3)CC2)nnc1-c1cc2ccccc2o1 | inactive | – |
| O=C(CCNC(=O)C1CCN(S(=O)(=O)c2ccc(F)cc2)CC1)NCc1ccc(F)cc1 | inconclusive: 29.1 µM [rising, single point] | – |
| CC(C)C(=O)NC(Nc1cccc2cccnc12)C(Cl)(Cl)Cl (stereo not given) | inconclusive: 16.4 µM [cytotoxic, partial curve] | – |
| O=C(NCC(=O)N1CCN(Cc2c(F)cccc2Cl)CC1)c1cccc(Cl)c1 | inconclusive: 29.1 µM [cytotoxic, single point] | – |
| CCOc1ccc(C2=NC(c3ccncc3)=Nc3ccc(C)cc3N2)cc1OCC | inactive | – |
| COc1ccc(NC(=O)CCCSc2ccccc2)cc1 | inconclusive: 29.1 µM [rising, single point] | – |
| COc1ccc(C2CC(=O)c3c([nH]c(C(=O)OCc4ccccc4)c3C)C2)cc1 (stereo not given) | inconclusive: 25.9 µM [cytotoxic, single point] | – |
| O=[N+]([O-])c1cc(Cl)ccc1N1CCN(c2cccc(C(F)(F)F)c2)CC1 | inconclusive: 16.4 µM [cytotoxic, single point] | – |
| CCc1c(C(=O)Nc2ccc(OC)cc2)[nH]c(C)c1C(C)=O | inconclusive: 16.4 µM [cytotoxic, single point] | – |
| O=C(Nc1ccc(Oc2ccccc2)nc1)C1CCCCN1Cc1cccc(O)c1 (stereo not given) | inconclusive: 6.51 µM [cytotoxic, partial curve] | – |
| O=C(c1ccc(Cl)s1)N(Cc1nnc(-c2ccccc2Cl)o1)C1CC1 | inconclusive: 8.2 µM [cytotoxic, partial curve] | – |
| CCc1sc2nc(SCC(=O)Nc3cc(C)on3)n(-c3cccc(OC)c3)c(=O)c2c1C | active: 1.64 µM | – |
| C=CCN1C(=O)/C(=C\c2ccc(OC(=O)c3ccco3)c(OC)c2)SC1=S | inactive | – |
| O=C(O)c1ccccc1C(=O)NC1CCN(c2nccc(C(F)(F)F)n2)CC1 | inconclusive: 18.4 µM [rising, partial curve, poor fit] | – |
| COc1ccc(C2CC(=O)N3C(=C2C#N)SCC3(O)c2ccccc2)cc1 (stereo not given) | active: 20.6 µM | – |
| O=[N+]([O-])c1ccc(S(=O)(=O)Nc2nc(-c3ccccc3)cs2)cc1 | – | inconclusive: -31.4% |
| CCCCCCc1nc2ccccc2c(=O)n1N | inconclusive: 23.1 µM [cytotoxic, single point] | – |
| O=C(CSc1ncnc2c1cnn2CCO)Nc1cccc(C(F)(F)F)c1 | inconclusive: 29.1 µM [cytotoxic, single point] | – |
| CCOC(=O)/C=C/C(=O)OCC(=O)Nc1ccc(OC)c(Cl)c1 | inactive | – |
| C=CC[C@H](CC(=O)N(CCO)Cc1ccccc1)C(=O)N[C@H](COC(=O)[C@@H](CC=C)Cc1ccc(F)cc1)Cc1ccccc1 | inconclusive: 20.6 µM [cytotoxic, single point] | – |

| Compound | Potency | activity change, negative = cytotoxicity |
| --- | --- | --- |
| Cc1nn(C)c(C)c1NS(=O)(=O)c1cccc(Br)c1 | inactive | – |
| CC1(C(=O)NS(=O)(=O)Cc2ccccc2)CCN1C(=O)Cc1ccccc1 (stereo not given) | inactive | – |
| COc1ccc(CC(N)c2csc(Nc3cnccn3)n2)cc1 (stereo not given) | inactive | – |
| COc1cccc(C(=O)Nc2ccc(-n3nncc3-c3ccccc3)cc2)c1OC | inactive | – |
| COc1cccc(CC(CC(=O)O)C(=O)Nc2cc(C)ccc2C)c1 (stereo not given) | inactive | – |
| CCc1nnc(NC(=O)C2CCC(CNc3c(N4CCCCC4)c(=O)c3=O)CC2)s1 (stereo not given) | inactive | – |
| Cc1[nH]c(C)c(S(=O)(=O)NCc2ccc(Cl)cc2)c1C(=O)N1CCCC1 | inconclusive: 2.06 µM [rising, full curve] | – |
| O=C(Nc1cccc(S(=O)(=O)NCc2ccco2)c1)c1cc(-c2ccc(F)cc2)nc2ccccc12 | inconclusive: 18.4 µM [cytotoxic, single point] | – |
| CCOC(=O)c1c(C)[nH]c(C)c1C(=O)COC(=O)COc1ccc(Cl)c(C)c1 | inconclusive: 23.1 µM [rising, single point] | – |
| CN(Cc1ccc(F)cc1)C(=O)c1cccc(S(=O)(=O)N2CCN(c3ccccc3)CC2)c1 | inconclusive: 7.31 µM [cytotoxic, partial curve] | – |
| Cc1sc(NC(=O)C2C3C=CC(C3)C2C(=O)O)c(C(N)=O)c1-c1ccc(C(C)C)cc1 (stereo not given) | inconclusive: 29.1 µM [cytotoxic, single point] | – |
| NS(=O)(=O)c1ccc(NC(=O)/C=C/c2ccco2)cc1 | inconclusive: 18.4 µM [rising, single point] | – |
| CC1CC(C)CN(CC(=O)Nc2ccc3c(c2)OCCO3)C1 (stereo not given) | inactive | – |
| Cc1ccc2cc(CN(C(=O)c3ccco3)c3cccc(C)c3C)c(=O)[nH]c2c1 | inconclusive: 2.59 µM [cytotoxic, full curve] | – |
| CCN1CCN(C(c2ccc(F)cc2)c2nnnn2Cc2cccs2)CC1 (stereo not given) | inactive | – |
| O=C(NC(=S)Nc1ccc(N2CCOCC2)cc1)c1ccco1 | active: 16.4 µM | – |
| Cc1ccn2c(NC3CCCCC3)c(-c3ccc(SC4CCCCC4)cc3)nc2c1 | active: 18.4 µM | – |
| O=C(CCl)N(c1ccc(Cl)cc1)c1c[nH]c2ccccc12 | active: 18.4 µM | – |
| CC(=O)c1cccc(NC(=O)NCCS(C)=O)c1 (stereo not given) | inconclusive: 32.6 µM [rising, partial curve, poor fit] | – |
| O=C(Nc1ccc(Cc2ccncc2)cc1)C1CCC(N2C(=O)C3CC=CCC3C2=O)CC1 (stereo not given) | active: 14.6 µM | – |
| O=S(=O)(Nc1nc2ccccc2[nH]1)c1ccc(Cl)cc1 | inconclusive: 23.1 µM [cytotoxic, single point] | – |
| O=C(CSc1cc(Cl)ccc1Cl)Nc1ccc(N2CCOCC2)cc1 | inconclusive: 29.1 µM [cytotoxic, single point] | – |
| N#C/C(=C\c1ccco1)C(=O)NCc1ccccc1 | inactive | – |
| COc1cc(/C=c2\s/c(=C(/C#N)C(=O)N3CCCC3)n(-c3ccccc3)c2=O)ccc1O | inactive | – |

| Compound | Potency | activity change, negative = cytotoxicity |
| --- | --- | --- |
| Cc1ccc(CNC(=O)C(Cc2ccccc2)NS(=O)(=O)c2cccs2)cc1 (stereo not given) | inconclusive: 18.4 µM [cytotoxic, single point] | – |
| C/C(=N/O)c1c(O)c(C)c(-c2ccccc2)n(-c2ccccc2)c1=O | inconclusive: 20.6 µM [cytotoxic, single point] | – |
| CC(NC(=O)/C=C/c1ccc(Br)cc1)c1ccccc1 (stereo not given) | inconclusive: 16.4 µM [cytotoxic, single point] | – |
| COC(=O)c1ccc(NS(=O)(=O)NC(=O)c2c[nH]c3ccccc23)cc1 | inconclusive: 29.1 µM [rising, partial curve, poor fit] | – |
| COc1cc(N2CCCC2)c(OC)cc1/C=C(/C#N)c1ccc(Br)cc1 | inactive | – |
| CCC(C)(C)NC(=O)CSc1nc(Cc2ccccc2)nc2ccccc12 | inconclusive: 20.6 µM [cytotoxic, single point] | – |
| O=[N+]([O-])c1cc(S(=O)(=O)N2CCCC2)ccc1N/N=C/c1cccs1 | inconclusive: 20.6 µM [cytotoxic, single point] | – |
| CCOC(=O)c1sc(NC(=O)Cc2ccccc2OC)nc1C | inactive | – |
| O=C(Nc1scc(-c2ccc(Br)cc2)c1C(=O)O)c1ccccc1F | inconclusive: 29.1 µM [cytotoxic, single point] | – |
| CCCCNC(=O)CSc1nnc(Cc2ccccc2)n1CC | inconclusive: 29.1 µM [cytotoxic, single point] | – |
| CC(C)CNC(=O)C1(C)CCCN1C(=O)C(C)(C)Oc1ccc(Cl)cc1 (stereo not given) | inactive | – |
| COCCNC(=O)C(OC(=O)C1=Cc2ccccc2OC1)C(C)C (stereo not given) | inactive | – |
| CCCN(CCC)CCCNC(=O)c1cnn(-c2ccc(F)cc2)c1-n1cccc1 | inactive | – |
| Cc1cccc(N2CCN(C(=O)c3cccs3)CC2)c1C | inconclusive: 13 µM [cytotoxic, partial curve] | – |
| CC(=O)Oc1ccc(C(=O)Nc2cc(C)ccc2NC(=O)COc2ccccc2)cc1 | active: 16.4 µM | – |
| CCc1ccc(C(=O)NC2CCCCC2)s1 | inconclusive: 7.31 µM [cytotoxic, partial curve] | – |
| Cc1cc(C)c(C(=O)COC(=O)Cn2nc(-c3ccccc3)oc2=O)cc1C | inconclusive: 16.4 µM [rising, single point] | – |
| CNc1ccc(Br)cc(C(=O)/C=C/c2ccc(OC)cc2OC)c1=O | inconclusive: 20.6 µM [cytotoxic, single point] | – |
| CC(=O)NC1CCCN(O)C(=O)/C=C(\C)CCOC(=O)C(NC(C)=O)CCCN(O)C(=O)/C=C(\C)CCOC(=O)C(NC(C)=O)CCCN(O)C(=O)/C=C(\C)CCOC1=O (stereo not given) | inactive | – |
| COc1ccccc1CNc1nc(-c2ccco2)nn1C(=O)c1cc(OC)c(OC)c(OC)c1 | inactive | – |
| Cc1cc(SCC(=O)NCC(c2cccs2)N2CCOCC2)c(C)cc1Br (stereo not given) | inconclusive: 14.6 µM [cytotoxic, partial curve] | – |
| CN(Cc1cnc2nc(N)nc(N)c2n1)c1ccc(C(=O)N[C@@H](CCC(=O)O)C(=O)O)cc1 | inconclusive: 20.6 nM [cytotoxic, full curve, poor fit] and active: 16.4 nM and active: 29.1 nM | – |
